Data reported in the supplement of paper PMC12823440, “Inhibitors supercharge kinase turnover through native proteolytic circuits” (Nature, 2025).
Structures can show the parent of a compound that is named as a salt. Some of the results follow. Hit calls seldom repeat between salt and free forms of one compound.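 Kinases, fused to nanoluciferase, were expressed in K562 cells; luminescence was measured every 4 h from 2 to 18 h as percent of control (DMSO = 100%, positive control = 0%). A time point is decreased if signal falls significantly (2 sigma). Hits were called by the authors by a rule that is not shown; the count of time points alone does not decide it.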

Chains of the proteins cited; added tags and fusions are not shown. Lines headed by an entry give the natural chain unless they say otherwise; changes in a name come on top.
UniProt P23458: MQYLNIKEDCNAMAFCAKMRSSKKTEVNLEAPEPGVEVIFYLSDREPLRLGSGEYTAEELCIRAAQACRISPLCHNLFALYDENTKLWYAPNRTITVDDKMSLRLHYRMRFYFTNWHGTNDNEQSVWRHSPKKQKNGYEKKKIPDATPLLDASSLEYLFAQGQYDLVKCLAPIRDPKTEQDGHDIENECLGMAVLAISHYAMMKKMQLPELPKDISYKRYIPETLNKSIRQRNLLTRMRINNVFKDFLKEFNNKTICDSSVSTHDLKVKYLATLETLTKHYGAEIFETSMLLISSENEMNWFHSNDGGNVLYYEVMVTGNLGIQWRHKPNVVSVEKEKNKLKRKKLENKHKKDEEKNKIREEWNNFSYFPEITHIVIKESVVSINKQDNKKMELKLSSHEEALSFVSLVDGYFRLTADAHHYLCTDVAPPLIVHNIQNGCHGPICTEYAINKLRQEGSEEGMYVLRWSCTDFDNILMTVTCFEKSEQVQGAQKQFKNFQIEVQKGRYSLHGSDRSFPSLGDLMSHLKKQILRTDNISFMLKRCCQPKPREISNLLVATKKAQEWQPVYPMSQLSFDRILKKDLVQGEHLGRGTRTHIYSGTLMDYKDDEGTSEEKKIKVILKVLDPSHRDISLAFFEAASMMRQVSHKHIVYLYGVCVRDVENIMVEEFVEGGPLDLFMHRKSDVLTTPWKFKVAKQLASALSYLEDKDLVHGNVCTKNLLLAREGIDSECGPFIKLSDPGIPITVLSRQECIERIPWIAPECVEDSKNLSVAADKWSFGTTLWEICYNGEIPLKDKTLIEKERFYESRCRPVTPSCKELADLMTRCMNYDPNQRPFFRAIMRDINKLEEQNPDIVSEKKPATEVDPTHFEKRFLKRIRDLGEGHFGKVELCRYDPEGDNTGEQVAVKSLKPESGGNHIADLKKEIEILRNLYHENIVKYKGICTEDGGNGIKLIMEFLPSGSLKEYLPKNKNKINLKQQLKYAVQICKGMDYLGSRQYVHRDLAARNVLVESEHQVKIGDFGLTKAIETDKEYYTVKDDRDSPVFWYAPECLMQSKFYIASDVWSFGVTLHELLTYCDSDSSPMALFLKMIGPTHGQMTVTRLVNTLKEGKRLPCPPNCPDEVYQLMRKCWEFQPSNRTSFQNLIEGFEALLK
UniProt P06239: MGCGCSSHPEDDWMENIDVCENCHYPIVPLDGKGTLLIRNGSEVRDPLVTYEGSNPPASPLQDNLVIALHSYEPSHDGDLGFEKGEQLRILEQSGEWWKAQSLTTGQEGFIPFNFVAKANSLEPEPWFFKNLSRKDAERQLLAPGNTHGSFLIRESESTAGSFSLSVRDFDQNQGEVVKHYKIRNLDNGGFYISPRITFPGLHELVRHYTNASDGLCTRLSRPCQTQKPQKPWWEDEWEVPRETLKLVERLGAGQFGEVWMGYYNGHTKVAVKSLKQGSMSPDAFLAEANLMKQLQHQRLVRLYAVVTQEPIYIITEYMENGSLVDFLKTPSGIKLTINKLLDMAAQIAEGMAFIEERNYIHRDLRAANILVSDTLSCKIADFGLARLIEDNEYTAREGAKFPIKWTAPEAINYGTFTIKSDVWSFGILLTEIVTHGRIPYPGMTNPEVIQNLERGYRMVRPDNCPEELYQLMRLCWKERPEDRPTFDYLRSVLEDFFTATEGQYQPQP

biological target: JAK1 (UniProt P23458); assay: kinase-Nluc reporter destabilization hit call (1 = scored as downregulated) (binary); higher = compound decreases kinase abundance; details: K562; 2-18 h

kinase-Nluc reporter destabilization hit call, inactive:
COc1ccc([C@@H]2CC(=O)c3c(O)cc(O)cc3O2)cc1O [Hesperetin] (10 µM) 0
N#Cc1c(-c2ccccc2)cc(-c2cc(Br)ccc2O)[nH]c1=O (10 µM) 0
Cc1c(CN2CCN(C(=O)[C@H](C)O)CC2)sc2c(N3CCOCC3)nc(-c3cnc(N)nc3)nc12 [Apitolisib] (10 µM) 0
NC1(Cc2ccc(Cl)cc2)CCN(c2ncnc3[nH]ccc23)CC1 (10 µM) 0
O=C(/C=C/c1ccc(O)c(O)c1)c1ccc(O[C@@H]2O[C@H](CO)[C@@H](O)[C@H](O)[C@H]2O)c(O)c1O [Marein] (10 µM) 0
CN(CC(=O)N(Cc1ccc(C2CCCCC2)cc1)c1ccc(C(=O)O)cc1)S(=O)(=O)c1c(F)c(F)c(F)c(F)c1F (2.5 µM) 0
CC(C)NC(=O)N1CC[C@H](NC2=Nc3cc(F)ccc3N(CC(F)F)c3ccc(Cl)cc32)C1 (10 µM) 0

biological target: LCK (UniProt P06239); assay: as above; details: K562; 2-18 h

kinase-Nluc reporter destabilization hit call, inactive:
Cn1cc(Nc2nccc(N3C[C@H]4CC[C@@H](C3)N4C(=O)[C@@H]3CC3(F)F)n2)cn1 (10 µM) 0
CC(C)=CC(=O)CCC(=O)N1CCN(Cc2cc3nc(-c4cccc5[nH]ncc45)nc(N4CCOCC4)c3s2)CC1 (10 µM) 0
CN(C)CCN(Cc1ccc(Cl)cc1)c1ccccn1 [Chloropyramine hydrochloride] (10 µM) 0
COc1cc([N+](=O)[O-])ccc1S(=O)(=O)N1C[C@@H](CN2CCN(c3ccccn3)CC2)[C@H](c2cccc(F)c2)C1 (relative stereo) (10 µM) 0
Cc1noc(C)c1-c1ccc(-c2cc(C(N)=O)c(NC(N)=O)s2)c(O[C@H]2CCNC2)c1 (10 µM) 0
CC(C)(C)NC(=O)c1cncn1C1CCN(c2ccc(-c3nnc(C(F)(F)F)o3)cn2)CC1 (10 µM) 0
COc1cccc(-n2c(=O)[nH]c3cc(Cl)n(-c4ccc(-c5cccc(OC)c5O)cc4)c3c2=O)c1 (2.5 µM) 0
O=C(Nc1cccnc1)c1cc(C(=O)c2c(F)cccc2Br)c[nH]1 (10 µM) 0
O=C(Nc1cc(Oc2cc(F)c(NC(=O)C3(C(=O)Nc4ccc(F)cc4)CC3)cc2F)ccn1)C1CC1 [Altiratinib] (10 µM) 0
O=C1NC(=O)C(=Cc2ccc(-c3ccc(F)cc3)o2)S1 (stereo in doubt) (10 µM) 0
O=C(NC(NC(=S)Nc1ccc(F)c([N+](=O)[O-])c1)C(Cl)(Cl)Cl)C(c1ccccc1)c1ccccc1 (stereo not given) (10 µM) 0
Nc1ncnc2c1ncn2[C@@H]1O[C@H](CO)C[C@H]1O [Cordycepin] (10 µM) 0
CC(C)(NS(=O)(=O)c1ccc2c(Cl)cnc(N=C(N)N)c2c1)C(=O)O (10 µM) 0
COc1cc2ncnc(Nc3cccc(Cl)c3)c2cc1OC (10 µM) 0
CCOc1ccc(C(=O)Nc2ncc([N+](=O)[O-])s2)cc1 (10 µM) 0
CC(C)CN[C@H]1CS(=O)(=O)C[C@@H]1S(=O)(=O)c1ccc(Cl)cc1 (10 µM) 0
CCn1c(=O)c(-c2ccc(-c3cncs3)cc2Cl)cc2cnc(Nc3ccc(N4CCN(C)CC4)cc3)nc21 (2.5 µM) 0
C[C@]1(O)CCC[C@@H]1n1c(=O)c(C(F)F)cc2cnc(NC3CCN(S(C)(=O)=O)CC3)nc21 (10 µM) 0
COc1c(NC(=O)C(=O)c2ccc(OCCN3CCOCC3)c3ccccc23)cc(C(C)(C)C)cc1NS(C)(=O)=O (2.5 µM) 0
COc1cc(S(C)(=O)=O)ccc1Nc1nc2ccc(-c3ccc(NC(=O)[C@H](C)c4ccc(F)cc4)cc3)cn2n1 [Empesertib] (10 µM) 0
Nc1cc(Nc2ccc(S(N)(=O)=O)cc2)ncn1 (10 µM) 0
O=C(O)c1cc(O)ccc1O [2,5-Dihydroxybenzoic acid] (10 µM) 0
OCCNC1CCCc2c1[nH]c1ccc(-c3ccccc3)cc21 (stereo not given) (2.5 µM) 0
CC(C)CC1(O)CCN(C(=O)c2ccc(NS(=O)(=O)c3cccc4nccnc34)cc2)CC1 (10 µM) 0
CNC(=O)c1ccc(-c2cnc3cnc(C(=O)N(C)c4ccc(Cl)cc4)cn23)cc1 (2.5 µM) 0
Cc1cc(Nc2cc(Cl)nc(Oc3ccc([N+](=O)[O-])cc3)n2)n[nH]1 [Autophinib] (2.5 µM) 0
CN1CCN(c2ccc(Nc3ncc4nc(Nc5ccccc5)n([C@@H]5CCN(S(=O)(=O)C6CC6)C5)c4n3)cc2)CC1 (2.5 µM) 0
Cc1c(CN2CCN(S(C)(=O)=O)CC2)sc2c(N3CCOCC3)nc(-c3cnc(N)nc3)nc12 (2.5 µM) 0
O=C(NCCCNc1nc(Nc2cccc(NC(=O)N3CCCC3)c2)ncc1I)c1cccs1 (2.5 µM) 0
O=C(/C=C/c1ccc(O[C@@H]2O[C@H](CO)[C@@H](O)[C@H](O)[C@H]2O[C@@H]2OC[C@](O)(CO)[C@H]2O)cc1)c1ccc(O)cc1O [Isoliquiritin apioside] (10 µM) 0
O=C1NC(=O)/C(=C/c2ccc3c(c2)OC(F)(F)O3)S1 (10 µM) 0
COc1ccc([C@@H]2CC(=O)c3c(O)cc(O)cc3O2)cc1O [Hesperetin] (10 µM) 0
N#Cc1c(-c2ccccc2)cc(-c2cc(Br)ccc2O)[nH]c1=O (10 µM) 0
Cc1c(CN2CCN(C(=O)[C@H](C)O)CC2)sc2c(N3CCOCC3)nc(-c3cnc(N)nc3)nc12 [Apitolisib] (10 µM) 0
NC1(Cc2ccc(Cl)cc2)CCN(c2ncnc3[nH]ccc23)CC1 (10 µM) 0
O=C(/C=C/c1ccc(O)c(O)c1)c1ccc(O[C@@H]2O[C@H](CO)[C@@H](O)[C@H](O)[C@H]2O)c(O)c1O [Marein] (10 µM) 0
CN(CC(=O)N(Cc1ccc(C2CCCCC2)cc1)c1ccc(C(=O)O)cc1)S(=O)(=O)c1c(F)c(F)c(F)c(F)c1F (2.5 µM) 0
CC(C)NC(=O)N1CC[C@H](NC2=Nc3cc(F)ccc3N(CC(F)F)c3ccc(Cl)cc32)C1 (10 µM) 0
